PubChem BioAssay AID1508597, Cure First – 2020

Purpose: 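Knock-downs altering ovarian cancer cell survival with or without PARP inhibitor rucaparib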 (primary screen)
Cell system: human ovarian carcinoma lines grown from tumours: OCI-P5x (papillary serous) and OCI-C5x (clear cell)
Knock-down reagent: siRNA pool against human genes, 1.25 pmol siRNA per well
Duration: 72 h or 96 h, depending on the cell culture
Conditions: rucaparib 20 µM (about IC30) or vehicle, present until read-out
Read-out: 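Luminescent ATP-based viability assay read 72 or 96 h after transfection, depending on culture, given as normalised percent viability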
Scale: viability, normalised: higher = more viable cells remaining
Rule for the call: 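Active when normalised viability falls below 80 percent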
Calls: active = viability under 80%; inactive = viability 80% or more
This is a random part of about 2,100 reagents. 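Calls flag viability under 80% in either arm, not effects specific to rucaparib; the reference for percent is not stated.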 No sequences are given here. Not given: the 100% reference.

| viability, normalised (%) | call | gene | rucaparib or vehicle | cell line | technical replicate |
| --- | --- | --- | --- | --- | --- |
| 55.9 | active | ARL8B (ARF like GTPase 8B) | Rucaparib | OCI-C5x (clear cell) | 1 |
| 47.2 | active | ARL8B (ARF like GTPase 8B) | Rucaparib | OCI-C5x (clear cell) | 2 |
| 48 | active | ARL8B (ARF like GTPase 8B) | Rucaparib | OCI-C5x (clear cell) | 3 |
| 67.9 | active | ARL8B (ARF like GTPase 8B) | Rucaparib | OCI-P5x (serous) | 1 |
| 77.7 | active | ARL8B (ARF like GTPase 8B) | Rucaparib | OCI-P5x (serous) | 2 |
| 79 | active | ARL8B (ARF like GTPase 8B) | Rucaparib | OCI-P5x (serous) | 3 |
| 50.1 | active | ARL8B (ARF like GTPase 8B) | Vehicle | OCI-C5x (clear cell) | 1 |
| 58.7 | active | ARL8B (ARF like GTPase 8B) | Vehicle | OCI-C5x (clear cell) | 2 |
| 40.7 | active | ARL8B (ARF like GTPase 8B) | Vehicle | OCI-C5x (clear cell) | 3 |
| 64.1 | active | ARL8B (ARF like GTPase 8B) | Vehicle | OCI-P5x (serous) | 1 |
| 62.6 | active | ARL8B (ARF like GTPase 8B) | Vehicle | OCI-P5x (serous) | 2 |
| 69.3 | active | ARL8B (ARF like GTPase 8B) | Vehicle | OCI-P5x (serous) | 3 |
| 73.7 | active | ZMYND8 (zinc finger MYND-type containing 8) | Rucaparib | OCI-C5x (clear cell) | 1 |
| 81.2 | inactive | ZMYND8 (zinc finger MYND-type containing 8) | Rucaparib | OCI-C5x (clear cell) | 2 |
| 56.5 | active | ZMYND8 (zinc finger MYND-type containing 8) | Rucaparib | OCI-C5x (clear cell) | 3 |
| 63.6 | active | ZMYND8 (zinc finger MYND-type containing 8) | Rucaparib | OCI-P5x (serous) | 1 |
| 48.4 | active | ZMYND8 (zinc finger MYND-type containing 8) | Rucaparib | OCI-P5x (serous) | 2 |
| 47.2 | active | ZMYND8 (zinc finger MYND-type containing 8) | Rucaparib | OCI-P5x (serous) | 3 |
| 56 | active | ZMYND8 (zinc finger MYND-type containing 8) | Vehicle | OCI-C5x (clear cell) | 1 |
| 86.1 | inactive | ZMYND8 (zinc finger MYND-type containing 8) | Vehicle | OCI-C5x (clear cell) | 2 |
| 62.8 | active | ZMYND8 (zinc finger MYND-type containing 8) | Vehicle | OCI-C5x (clear cell) | 3 |
| 61.9 | active | ZMYND8 (zinc finger MYND-type containing 8) | Vehicle | OCI-P5x (serous) | 1 |
| 68 | active | ZMYND8 (zinc finger MYND-type containing 8) | Vehicle | OCI-P5x (serous) | 2 |
| 45.8 | active | ZMYND8 (zinc finger MYND-type containing 8) | Vehicle | OCI-P5x (serous) | 3 |

2 entries from above in another layout:
{"gene":"ZMYND8 (zinc finger MYND-type containing 8)","rucaparib or vehicle":"Vehicle","cell line":"OCI-P5x (serous)","technical replicate":"1","viability, normalised (%)":61.9,"call":"active"}
{"gene":"ZMYND8 (zinc finger MYND-type containing 8)","rucaparib or vehicle":"Vehicle","cell line":"OCI-P5x (serous)","technical replicate":"2","viability, normalised (%)":68,"call":"active"}
